At least one read-out could not be matched to a standard name with certainty.
Test: Growth substrates: final OD and % removal of cis-DCE and TCE (Table 1)
Format: cell-based
Details: culture grown on the listed substrate

In the case of `CC(C)=O` [Acetone], the “% REMOVAL Cis-DCE” value is reported as 58% and the “FINAL OD(550)” value is reported as 0.22.
